In patent publication US7045591B2, “Selective cyclic peptides with melanocortin-4 receptor (MC4-R) agonist activity” (Hoffmann-La Roche Inc., priority 2000, dated 2006):
Some results were stated once for a whole list of compounds, not compound by compound. Numbered stars: 1 amine (or outer) side, 2 acyl side, 3 side chain; on linkers, the order of the positions; unused ones are H or OH. Bridge positions count the residues as written; N and C are the ends. Square brackets hold non-standard residues; d marks the D form. Peptide text beside a SMILES is read from it. * marks the point of attachment. ξ: configuration not given here. Ac6c(4-Ph-cis-to-N) = N[C@]1(C(=O)O)CC[C@H](c2ccccc2)CC1; X2 = C[C@H](c1c[nH]c2ccccc12)[C@@H](N[*:1])C(=O)[*:2]; X1 = O=C(C1(N[*:1])CCC(c2ccccc2)CC1)[*:2]; Pentanoyl = CCCCC(=O)*; ξK = NCCCCC(N)C(=O)O

The chains behind the UniProt entries cited, without tags or fusion partners.
UniProt P32245, whole entry: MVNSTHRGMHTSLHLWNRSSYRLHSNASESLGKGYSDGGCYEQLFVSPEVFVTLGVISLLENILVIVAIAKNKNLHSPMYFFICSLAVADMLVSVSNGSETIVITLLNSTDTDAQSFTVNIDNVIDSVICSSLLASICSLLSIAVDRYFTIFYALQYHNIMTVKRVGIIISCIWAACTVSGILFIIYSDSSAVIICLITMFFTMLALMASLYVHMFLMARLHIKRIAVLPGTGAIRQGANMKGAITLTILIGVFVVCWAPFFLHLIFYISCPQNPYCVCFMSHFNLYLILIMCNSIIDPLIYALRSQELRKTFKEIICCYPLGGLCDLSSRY

Molecular target: T1, MC-4 receptor (Homo sapiens, UniProt P32245)
T1 construct: expressed in transfected cells; host or cells: HEK 293 cells (G418 selected)
Test: Agonist assay: cAMP response in HEK 293 cells transfected with the MC-4 receptor (Biotrak-cAMP SPA)
Format: cell-based
Conditions: for greater MC4-R agonist activity than MC1-R agonist activity: MC4-R versus MC1-R, in vitro assay of Biological Activity Example A
Description: Description: HEK 293 cells transfected with either the MC-4 receptor or MC-1 receptor were grown in 96 well plates. The cells were stimulated with either 100 nM NDP-αMSH or screening compounds. Cyclic AMP was extracted from the cells and concentrations were determined using a Biotrak-cAMP SPA assay. Agonists were identified as those compounds causing an increase in cAMP.
Cell Culture: HEK 293 cells transfected with either the MC-4 receptor or MC-1 receptor were cultured in 75 cm^2 flasks in D-MEM supplemented with 10% FCS and 500 μg/ml G418. Cells were trypsinized and split 1:3 into 96 well flat-bottom tissue culture treated plates. Cells were stimulated at confluence (day 2-4).
cAMP Response: Compounds serially diluted in 100% DMSO were further diluted 1:200 (2.5 μl compound dilution +500 μl media) in D-MEM containing 10% FBS and 0.1 mM IBMX. For unstimulated cells, 2.5 μl of DMSO was added to 500 μl of media. For NDP-αMSH stimulated cells, 2.5 μl of 20μM NDP-αMSH in 100% DMSO was added to 500μl of media (final conc. 100 nM). Final concentration of DMSO in all wells was 0.5%.
Note: Each sample was run in duplicate on separate plates.
Culture medium was removed from confluent 96 well culture plates and replaced with 200 μof above dilutions into the appropriate wells. The plates were incubated for 1 hr at RT. The media was removed, and the plates were washed 1× with 200 ^μl well of PBS. CAMP was extracted by the addition of 60 μl 70% ethanol (stored in the refrigerator). After a 30 min extraction period, 10 μl ethanol extract was transferred to the cAMP assay plate or samples were stored at −20° C. until the cAMP assay was performed.
cAMP Assay: The extracted samples and all reagents included in the kit were brought to room temperature. To a 96 well OptiPlate, 10 μl ethanol extract, 40 μl assay buffer, 50 μl [125I]cAMP, 50 μl antiserum and 50 μl SPA beads were added. The total well volume after addition was 200 μl . […] [125I ]cAMP binding to the SPA beads was determined by counting each plate for 2 minutes on a Packard TopCount™. […]

| SMILES | greater MC4-R agonist activity than MC1-R agonist activity | EC50 (HEK 293 cells transfected with MC-4 receptor, cAMP increase, read-out: EC50 for MC4-R agonist activity) [nM] |
| --- | --- | --- |
| CCCCC(=O)N[C@H]1CC(=O)NCCCCC(C(N)=O)NC(=O)[C@H](Cc2c[nH]c3ccccc23)NC(=O)[C@H](C)NC(=O)[C@@H](Cc2ccccc2)NC(=O)[C@]2(CC[C@H](c3ccccc3)CC2)NC1=O (stereo partly drawn) [Penta-cyclo(Asp-Lys)-Asp-Apc-(D)Phe-Ala-Trp-Lys-NH2] (Pentanoyl-D[Ac6c(4-Ph-cis-to-N)][dF]AW[ξK]-NH2; lactam 1-6) | at least 10 fold | – |
| CCCCC(=O)N[C@H]1CC(=O)NCCCC[C@@H](C(N)=O)NC(=O)[C@@H]([C@H](C)c2c[nH]c3ccccc23)NC(=O)[C@H](CCCNC(=N)N)NC(=O)[C@@H](Cc2ccccc2)NC(=O)C2(CCC(c3ccccc3)CC2)NC1=O (stereo partly drawn) [Penta-cyclo(Asp-Lys)-Asp-Apc-(D)Phe-Arg-(2S,3S) beta methyl-Trp-Lys-NH2] (Pentanoyl-D[X1][dF]R[X2]K-NH2; lactam 1-6) | at least 10 fold | < 500 |
